PubChem BioAssay AID743121 – NCATS | 2013

Aim: 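Knock-downs that sensitise breast cancer cells to camptothecin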 (primary screen)
Cell system: MDA-MB-231 cells, a human breast cancer line
Reagents: single siRNA against human genes, 20 nM siRNA (0.8 pmol per well)
Timing: 120 h (drug added 48 h after transfection, read 72 h later)
Conditions: camptothecin 20 nM (about EC30) for 72 h; vehicle 0.1% DMSO in parallel plates
Measured: 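CellTiter-Glo ATP signal, scaled to control siRNA as percent viability; sensitisation given as log2 of untreated divided by camptothecin-treated viability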
Scale: log2 vehicle/camptothecin viability: higher = stronger sensitisation to camptothecin; viability with camptothecin and viability without drug: higher = more viable cells
Rule for the call: 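Active genes have an RSA gene-level p-value below 0.001, computed from the ratios of their separate siRNAs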
In all, the deposit lists about 26,000 reagents; below is a part drawn at random. In the full data, 167 (0.63%) were called active. 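Calls are per gene from RSA p-values that are not deposited; an individual active-marked siRNA can sensitise only weakly.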 The numbers tell different reagents against one gene apart. Reagent sequences are not shown.

| gene symbol | reagent no. | log2 vehicle/camptothecin viability | viability with camptothecin (% of control) | viability without drug (% of control) | outcome |
| --- | --- | --- | --- | --- | --- |
| PAPSS2 (3'-phosphoadenosine 5'-phosphosulfate synthase 2) | 1 | -0.146 | 99.9 | 90.2 | inactive |
| PAPSS2 (3'-phosphoadenosine 5'-phosphosulfate synthase 2) | 2 | 0.64 | 38.4 | 59.8 | inactive |
| PAPSS2 (3'-phosphoadenosine 5'-phosphosulfate synthase 2) | 3 | -0.351 | 102 | 80.3 | inactive |
| PAPSS2 (3'-phosphoadenosine 5'-phosphosulfate synthase 2) | 4 | -0.319 | 96.5 | 77.3 | inactive |
| TSSK3 (testis specific serine kinase 3) | 1 | -0.127 | 86.8 | 79.5 | inactive |
| TSSK3 (testis specific serine kinase 3) | 2 | -0.238 | 88.4 | 75 | inactive |
| TSSK3 (testis specific serine kinase 3) | 3 | 0.27 | 44.7 | 53.9 | inactive |
| TSSK3 (testis specific serine kinase 3) | 4 | -0.193 | 80.1 | 70 | inactive |
| TCF7 (transcription factor 7) | 1 | 0.276 | 70.4 | 85.3 | inactive |
| TCF7 (transcription factor 7) | 2 | 0.544 | 10.7 | 15.5 | inactive |
| TCF7 (transcription factor 7) | 3 | 0.968 | 9.13 | 17.8 | inactive |
| TCF7 (transcription factor 7) | 4 | -0.00456 | 107 | 107 | inactive |
| TDG (thymine DNA glycosylase) | 1 | -0.135 | 84.7 | 77.1 | inactive |
| TDG (thymine DNA glycosylase) | 2 | 0.0648 | 102 | 107 | inactive |
| TDG (thymine DNA glycosylase) | 3 | 1.02 | 9.28 | 18.8 | inactive |
| TDG (thymine DNA glycosylase) | 4 | 0.0965 | 51.4 | 55 | inactive |
| MTHFD1 | 1 | -0.787 | 97.7 | 56.6 | inactive |
| MTHFD1 | 2 | 0.211 | 47.6 | 55.1 | inactive |
| MTHFD1 | 3 | 0.671 | 16 | 25.5 | inactive |
| MTHFD1 | 4 | -0.266 | 74.2 | 61.7 | inactive |
| ALDH3B1 (aldehyde dehydrogenase 3 family member B1) | 1 | 0.386 | 41 | 53.6 | inactive |
| ALDH3B1 (aldehyde dehydrogenase 3 family member B1) | 2 | -0.425 | 50.3 | 37.4 | inactive |
| ALDH3B1 (aldehyde dehydrogenase 3 family member B1) | 3 | -0.401 | 76.4 | 57.8 | inactive |
| ALDH3B1 (aldehyde dehydrogenase 3 family member B1) | 4 | 1.45 | 11.8 | 32.3 | inactive |
| GABRP (gamma-aminobutyric acid type A receptor subunit pi) | 1 | 0.0355 | 101 | 104 | inactive |
| GABRP (gamma-aminobutyric acid type A receptor subunit pi) | 2 | -0.163 | 43.9 | 39.2 | inactive |
| GABRP (gamma-aminobutyric acid type A receptor subunit pi) | 3 | -0.0878 | 87 | 81.9 | inactive |
| GABRP (gamma-aminobutyric acid type A receptor subunit pi) | 4 | 0.059 | 65.7 | 68.4 | inactive |
| FBXL18 (F-box and leucine rich repeat protein 18) | 1 | -0.413 | 99.5 | 74.8 | inactive |
| FBXL18 (F-box and leucine rich repeat protein 18) | 2 | -0.521 | 79.8 | 55.6 | inactive |
| FBXL18 (F-box and leucine rich repeat protein 18) | 3 | -0.105 | 61.6 | 57.2 | inactive |
| FBXL18 (F-box and leucine rich repeat protein 18) | 4 | -0.484 | 91.5 | 65.4 | inactive |
| TSSK6 (testis specific serine kinase 6) | 1 | 0.0372 | 71.2 | 73 | inactive |
| TSSK6 (testis specific serine kinase 6) | 2 | -0.0779 | 64 | 60.6 | inactive |
| TSSK6 (testis specific serine kinase 6) | 3 | 0.349 | 39.1 | 49.8 | inactive |
| TSSK6 (testis specific serine kinase 6) | 4 | -0.204 | 68.7 | 59.6 | inactive |
| PCLAF (PCNA clamp associated factor) | 1 | -0.166 | 52.5 | 46.8 | inactive |
| PCLAF (PCNA clamp associated factor) | 2 | -0.186 | 88 | 77.3 | inactive |
| PCLAF (PCNA clamp associated factor) | 3 | 0.0292 | 44.3 | 45.2 | inactive |
| SLC7A7 | 1 | 0.488 | 48.6 | 68.2 | inactive |
| SLC7A7 | 2 | -0.0395 | 95.2 | 92.6 | inactive |
| SLC7A7 | 3 | -0.0759 | 52.2 | 49.6 | inactive |
| ARHGDIB (Rho GDP dissociation inhibitor beta) | 1 | -0.0692 | 86.6 | 82.6 | inactive |
| ARHGDIB (Rho GDP dissociation inhibitor beta) | 2 | -0.49 | 90 | 64 | inactive |
| ARHGDIB (Rho GDP dissociation inhibitor beta) | 3 | -0.0568 | 111 | 106 | inactive |
| ARHGDIB (Rho GDP dissociation inhibitor beta) | 4 | 0.165 | 82.7 | 92.7 | inactive |
| PPP1R3C (protein phosphatase 1 regulatory subunit 3C) | 1 | -0.22 | 99.4 | 85.3 | inactive |
| PPP1R3C (protein phosphatase 1 regulatory subunit 3C) | 2 | -0.181 | 95.9 | 84.6 | inactive |
| PPP1R3C (protein phosphatase 1 regulatory subunit 3C) | 3 | -0.423 | 83.4 | 62.2 | inactive |
| PPP1R3C (protein phosphatase 1 regulatory subunit 3C) | 4 | -0.065 | 85.9 | 82.1 | inactive |
| PFN2 (profilin 2) | 1 | -0.278 | 103 | 84.6 | inactive |
| PFN2 (profilin 2) | 2 | 0.00348 | 89.5 | 89.7 | inactive |
| PFN2 (profilin 2) | 3 | -0.214 | 118 | 102 | inactive |
| PFN2 (profilin 2) | 4 | -0.19 | 110 | 96.3 | inactive |
| NEK5 (NIMA related kinase 5) | 1 | -0.114 | 88.8 | 82.1 | inactive |
| NEK5 (NIMA related kinase 5) | 2 | -0.143 | 61.4 | 55.6 | inactive |
| NEK5 (NIMA related kinase 5) | 3 | -0.391 | 70.3 | 53.6 | inactive |
| NEK5 (NIMA related kinase 5) | 4 | 0.0542 | 60.3 | 62.6 | inactive |
| SCGB1A1 (secretoglobin family 1A member 1) | 1 | 0.0773 | 37.5 | 39.6 | inactive |
| SCGB1A1 (secretoglobin family 1A member 1) | 2 | 0.198 | 50.7 | 58.1 | inactive |
| SCGB1A1 (secretoglobin family 1A member 1) | 3 | 0.43 | 51.9 | 69.9 | inactive |
| SCGB1A1 (secretoglobin family 1A member 1) | 4 | -0.34 | 45.8 | 36.2 | inactive |
| MARS2 (methionyl-tRNA synthetase 2, mitochondrial) | 1 | -0.0906 | 101 | 95 | inactive |
| MARS2 (methionyl-tRNA synthetase 2, mitochondrial) | 2 | -0.0733 | 122 | 116 | inactive |
| MARS2 (methionyl-tRNA synthetase 2, mitochondrial) | 3 | -0.575 | 86.1 | 57.8 | inactive |
| NEO1 (neogenin 1) | 1 | 0.125 | 94.6 | 103 | inactive |
| NEO1 (neogenin 1) | 2 | 0.295 | 73.7 | 90.4 | inactive |
| NEO1 (neogenin 1) | 3 | -0.0866 | 44.9 | 42.3 | inactive |
| NEO1 (neogenin 1) | 4 | -0.0991 | 85.9 | 80.2 | inactive |

No new results follow: an excerpt of the list.
| gene symbol | reagent no. | log2 vehicle/camptothecin viability | viability with camptothecin (% of control) | viability without drug (% of control) | outcome |
| --- | --- | --- | --- | --- | --- |
| MTHFD1 | 4 | -0.266 | 74.2 | 61.7 | inactive |
| ALDH3B1 (aldehyde dehydrogenase 3 family member B1) | 1 | 0.386 | 41 | 53.6 | inactive |
| ALDH3B1 (aldehyde dehydrogenase 3 family member B1) | 2 | -0.425 | 50.3 | 37.4 | inactive |
